Molecules are shown by their SMILES. The list does not hold the whole screen: it covers a few groups of compounds. Not every dose and run of a compound is shown. T/C gives the treated animals as a percentage of the vehicle group. Some T/C values are marked as having no survivor count here; that says nothing about deaths at the dose. Schedules are NCI's codes, taken here to give the interval after Q, in days (D) or hours (H), and the number of doses after X. Some entries hold several experiments; the results are listed from low to high.

This experiment has as its system BDF1 mice, Adenocarcinoma 755 s.c., tumor weight T/C. The experiment in a line: NCI In Vivo Anticancer Drug Screen. Data for tumor model Adenocarcinoma 755 (subcutaneous) in B6D2F1 (BDF1) mice. The following applies: T/C endpoint: mean tumor weight, schedule: Q01DX011 (ip), evaluation day not shown, higher T/C = larger tumour. As to the method: The antitumor activity of compounds was measured in mice bearing transplantable tumors. Survival or tumor size were measured and the results are expressed as the measurement made in the treated group (T) divided by the measurement made in the vehicle treated control group (C). The tumor model used in this assay is Adenocarcinoma 755 (subcutaneous) in B6D2F1 (BDF1) mice

Setting [1] is: dose: 2.5 mg/kg/injection, vehicle: carboxymethylcellulose (CMC).
Setting [2] is: dose: 5.0 mg/kg/injection, vehicle: carboxymethylcellulose (CMC).

`Cc1ccc2nc(CN(CCCl)CCCl)[nH]c2c1`: the T/C is 78 % of control [survivor count not shown] under setting [1]; 76 % of control [survivor count not shown] (dose: 2.5 mg/kg/injection, vehicle: methylcellulose (MC)); 93 % of control [survivor count not shown] under setting [2]; 122 % of control [survivor count not shown] (dose: 5.0 mg/kg/injection, vehicle: methylcellulose (MC)); 117 % of control [survivor count not shown] (dose: 10.0 mg/kg/injection, vehicle: carboxymethylcellulose (CMC)); 56 % of control [survivor count not shown] (dose: 10.1 mg/kg/injection, vehicle: methylcellulose (MC)). Under “dose: 20.0 mg/kg/injection, vehicle: carboxymethylcellulose (CMC)”, the T/C is 60 % of control [survivor count not shown].
With `N#CC(C#N)=Cc1ccc(N(CCCl)CCCl)cc1`, the T/C (dose: 56.0 mg/kg/injection, vehicle: carboxymethylcellulose (CMC)) was 48 % of control [survivor count not shown]; the T/C (dose: 112.0 mg/kg/injection, vehicle: carboxymethylcellulose (CMC)) was 27 % of control [survivor count not shown]; the T/C (dose: 225.0 mg/kg/injection, vehicle: carboxymethylcellulose (CMC)) was 17 % of control [survivor count not shown].
With `O=C(O)CCCCc1ccc(N(CCCl)CCCl)cc1`, the T/C (dose: 2.0 mg/kg/injection, vehicle: saline) was 61 % of control [survivor count not shown]; the T/C (dose: 4.0 mg/kg/injection, vehicle: saline) was 76 % of control [survivor count not shown]; the T/C (dose: 8.0 mg/kg/injection, vehicle: saline) is 70 % of control [survivor count not shown]; the T/C (dose: 16.0 mg/kg/injection, vehicle: saline) was 81 % of control [survivor count not shown].
Take `Nc1ncnc2c1ncn2CCN(CCCl)CCCl`: the T/C by setting is: (dose: 3.7 mg/kg/injection, vehicle: carboxymethylcellulose (CMC)) 60 % of control [survivor count not shown]; (dose: 7.5 mg/kg/injection, vehicle: carboxymethylcellulose (CMC)) 21 % of control [survivor count not shown].
As for `O=C(O)COc1cccc(N(CCCl)CCCl)c1`, the T/C runs as follows: (dose: 11.25 mg/kg/injection, vehicle: methylcellulose (MC)) 58 % of control [survivor count not shown]; (dose: 22.5 mg/kg/injection, vehicle: methylcellulose (MC)) 30 % of control [survivor count not shown]; (dose: 45.0 mg/kg/injection, vehicle: methylcellulose (MC)) 11 % of control [survivor count not shown]; (dose: 90.0 mg/kg/injection, vehicle: methylcellulose (MC)) 5 % of control [survivor count not shown].
Take `NC(Cc1cccc(N(CCCl)CCCl)c1)C(=O)O` (stereo not given): the T/C is 16 % of control [survivor count not shown] (dose: 0.15 mg/kg/injection, vehicle: carboxymethylcellulose (CMC)); 9 % of control [survivor count not shown] (dose: 0.6 mg/kg/injection, vehicle: carboxymethylcellulose (CMC)); 46 % of control [survivor count not shown] (dose: 0.62 mg/kg/injection, vehicle: carboxymethylcellulose (CMC)); 5 [survivor count not shown] and 8 % of control [survivor count not shown] (dose: 1.25 mg/kg/injection, vehicle: carboxymethylcellulose (CMC)); 4 [survivor count not shown] and 7 % of control [survivor count not shown] under setting [1]; 3 % of control [survivor count not shown] under setting [2].
Take `CC(C(=O)O)N(CCCl)CCCl` (stereo not given): the T/C runs as follows: (dose: 0.44 mg/kg/injection, vehicle: other) 45 % of control [survivor count not shown]; (dose: 0.53 mg/kg/injection, vehicle: carboxymethylcellulose (CMC)) 85 % of control [survivor count not shown]; (dose: 0.75 mg/kg/injection, vehicle: carboxymethylcellulose (CMC)) 83 % of control [survivor count not shown]; (dose: 0.88 mg/kg/injection, vehicle: other) 52 % of control [survivor count not shown]; (dose: 0.9 mg/kg/injection, vehicle: carboxymethylcellulose (CMC)) 42 [survivor count not shown] and 78 % of control [survivor count not shown]; (dose: 1.05 mg/kg/injection, vehicle: carboxymethylcellulose (CMC)) 92 % of control [survivor count not shown]. The T/C is 124 % of control [survivor count not shown] (dose: 1.5 mg/kg/injection, vehicle: carboxymethylcellulose (CMC)); 48 % of control [survivor count not shown] (dose: 1.75 mg/kg/injection, vehicle: other); 85 [survivor count not shown] and 90 % of control [survivor count not shown] (dose: 1.8 mg/kg/injection, vehicle: carboxymethylcellulose (CMC)); 85 % of control [survivor count not shown] (dose: 2.1 mg/kg/injection, vehicle: carboxymethylcellulose (CMC)); 34 % of control [survivor count not shown] (dose: 3.0 mg/kg/injection, vehicle: carboxymethylcellulose (CMC)); 41 % of control [survivor count not shown] (dose: 3.5 mg/kg/injection, vehicle: other). Besides, the T/C by setting is: (dose: 3.6 mg/kg/injection, vehicle: carboxymethylcellulose (CMC)) 67 [survivor count not shown] and 73 % of control [survivor count not shown]; (dose: 4.2 mg/kg/injection, vehicle: carboxymethylcellulose (CMC)) 88 % of control [survivor count not shown]; (dose: 7.2 mg/kg/injection, vehicle: carboxymethylcellulose (CMC)) 79 [survivor count not shown] and 125 % of control [survivor count not shown]; (dose: 912.0 micrograms/kg/injection, vehicle: carboxymethylcellulose (CMC)) 66 % of control [survivor count not shown]; (dose: 1825.0 micrograms/kg/injection, vehicle: carboxymethylcellulose (CMC)) 89 % of control [survivor count not shown]; (dose: 3650.0 micrograms/kg/injection, vehicle: carboxymethylcellulose (CMC)) 62 % of control [survivor count not shown]. Besides, the T/C (dose: 7300.0 micrograms/kg/injection, vehicle: carboxymethylcellulose (CMC)) is 67 % of control [survivor count not shown].

The values are drawn from PubChem BioAssay AID180 (DTP/NCI, 2004).
